Values quoted from earlier work in patent US10632115B2, “Use of a statin compound as local drug for treating obesity, diabetes, hypertension and hyperlipemia” (Peking University Third Hospital, priority 2015, dated 2020).

Experiments:
[1] = oral, high dose atorvastatin 80 mg; cited from earlier work
[2] = test system: non-diabetic patients with hypercholesterolemia; conditions: oral administration; cited from earlier work

Q: Which results are given for `CC(C)c1c(C(=O)Nc2ccccc2)c(-c2ccccc2)c(-c2ccc(F)cc2)n1CC[C@@H](O)C[C@@H](O)CC(=O)O` [atorvastatin]?
A: effect on glucose metabolism [1]: detrimental; effect on glucose metabolism [2]: opposite
